Measurements from the supplement of paper PMC10849652.
The other results are listed elsewhere or left out.

Chains of the proteins cited; added tags and fusions are not shown. Lines headed by an entry give the natural chain unless they say otherwise; changes in a name come on top.
UniProt Q92805: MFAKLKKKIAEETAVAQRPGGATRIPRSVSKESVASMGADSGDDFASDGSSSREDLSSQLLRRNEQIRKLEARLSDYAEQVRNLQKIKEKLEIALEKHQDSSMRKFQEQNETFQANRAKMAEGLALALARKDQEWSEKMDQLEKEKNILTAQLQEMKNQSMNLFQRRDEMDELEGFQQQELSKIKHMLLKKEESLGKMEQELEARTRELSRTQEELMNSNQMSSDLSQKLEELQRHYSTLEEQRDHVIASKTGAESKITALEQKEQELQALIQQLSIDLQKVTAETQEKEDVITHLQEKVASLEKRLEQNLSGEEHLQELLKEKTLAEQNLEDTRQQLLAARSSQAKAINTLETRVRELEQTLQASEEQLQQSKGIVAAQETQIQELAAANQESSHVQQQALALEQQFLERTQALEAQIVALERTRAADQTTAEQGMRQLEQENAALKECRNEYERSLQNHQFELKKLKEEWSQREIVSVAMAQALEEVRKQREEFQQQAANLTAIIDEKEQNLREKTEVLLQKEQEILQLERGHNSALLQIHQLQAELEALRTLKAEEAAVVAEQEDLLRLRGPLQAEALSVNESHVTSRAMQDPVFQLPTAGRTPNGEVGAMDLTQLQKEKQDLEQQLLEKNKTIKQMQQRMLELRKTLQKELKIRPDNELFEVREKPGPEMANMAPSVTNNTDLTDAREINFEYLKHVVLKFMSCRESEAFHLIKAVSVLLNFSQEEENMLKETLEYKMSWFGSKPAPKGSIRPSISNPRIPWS
UniProt P17900: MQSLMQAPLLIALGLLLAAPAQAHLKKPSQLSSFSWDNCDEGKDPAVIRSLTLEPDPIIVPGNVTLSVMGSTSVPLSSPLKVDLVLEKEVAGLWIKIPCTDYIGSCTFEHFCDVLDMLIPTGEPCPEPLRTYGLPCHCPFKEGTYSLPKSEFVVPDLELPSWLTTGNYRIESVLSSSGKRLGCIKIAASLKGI
UniProt Q9BYB4: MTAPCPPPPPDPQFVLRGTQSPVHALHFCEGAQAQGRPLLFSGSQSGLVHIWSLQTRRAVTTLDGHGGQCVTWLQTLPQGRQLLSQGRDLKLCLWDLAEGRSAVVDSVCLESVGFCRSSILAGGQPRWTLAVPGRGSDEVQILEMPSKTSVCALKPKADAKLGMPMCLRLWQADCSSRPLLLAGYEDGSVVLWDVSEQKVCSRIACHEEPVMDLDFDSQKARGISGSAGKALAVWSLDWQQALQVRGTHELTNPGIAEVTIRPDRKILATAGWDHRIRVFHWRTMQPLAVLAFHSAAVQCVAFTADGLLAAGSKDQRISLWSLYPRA
UniProt Q9NZ52: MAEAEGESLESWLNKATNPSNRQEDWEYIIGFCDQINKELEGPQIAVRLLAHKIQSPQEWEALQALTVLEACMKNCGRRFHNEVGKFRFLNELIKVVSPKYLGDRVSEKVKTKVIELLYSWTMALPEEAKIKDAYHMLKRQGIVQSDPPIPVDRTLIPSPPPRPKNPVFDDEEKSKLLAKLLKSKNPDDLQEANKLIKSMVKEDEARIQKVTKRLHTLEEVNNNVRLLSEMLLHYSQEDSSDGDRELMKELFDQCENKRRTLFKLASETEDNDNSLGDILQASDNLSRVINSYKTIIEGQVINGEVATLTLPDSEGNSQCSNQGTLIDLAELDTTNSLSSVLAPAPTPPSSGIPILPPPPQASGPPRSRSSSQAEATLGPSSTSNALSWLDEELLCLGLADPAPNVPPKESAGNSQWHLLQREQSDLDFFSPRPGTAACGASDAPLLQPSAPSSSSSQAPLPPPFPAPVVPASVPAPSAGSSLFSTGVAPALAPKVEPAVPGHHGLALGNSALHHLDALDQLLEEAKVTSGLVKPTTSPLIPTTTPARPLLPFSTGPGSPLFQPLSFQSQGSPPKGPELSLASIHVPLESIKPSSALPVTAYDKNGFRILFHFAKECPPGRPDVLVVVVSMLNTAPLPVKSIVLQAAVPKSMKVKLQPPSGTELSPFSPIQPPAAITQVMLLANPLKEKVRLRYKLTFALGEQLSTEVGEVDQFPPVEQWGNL
UniProt O00461: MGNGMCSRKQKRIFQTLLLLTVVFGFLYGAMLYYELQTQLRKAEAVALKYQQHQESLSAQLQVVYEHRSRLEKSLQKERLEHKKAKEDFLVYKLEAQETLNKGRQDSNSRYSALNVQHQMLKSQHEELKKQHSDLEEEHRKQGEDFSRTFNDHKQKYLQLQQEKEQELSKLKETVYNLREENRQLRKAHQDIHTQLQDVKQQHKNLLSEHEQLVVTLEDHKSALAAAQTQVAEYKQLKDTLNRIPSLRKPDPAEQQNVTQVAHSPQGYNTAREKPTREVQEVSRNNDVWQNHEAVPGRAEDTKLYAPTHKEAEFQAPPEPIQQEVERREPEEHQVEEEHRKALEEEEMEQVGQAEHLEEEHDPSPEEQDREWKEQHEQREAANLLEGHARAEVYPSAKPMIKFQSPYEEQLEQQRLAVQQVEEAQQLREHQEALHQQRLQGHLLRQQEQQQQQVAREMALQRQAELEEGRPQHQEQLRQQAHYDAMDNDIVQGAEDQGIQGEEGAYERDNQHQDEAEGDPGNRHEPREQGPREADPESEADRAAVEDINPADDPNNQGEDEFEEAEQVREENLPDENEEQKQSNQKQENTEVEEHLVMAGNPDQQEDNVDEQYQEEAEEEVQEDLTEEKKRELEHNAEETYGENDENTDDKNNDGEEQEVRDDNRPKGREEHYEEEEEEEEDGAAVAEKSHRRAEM
UniProt Q8N954: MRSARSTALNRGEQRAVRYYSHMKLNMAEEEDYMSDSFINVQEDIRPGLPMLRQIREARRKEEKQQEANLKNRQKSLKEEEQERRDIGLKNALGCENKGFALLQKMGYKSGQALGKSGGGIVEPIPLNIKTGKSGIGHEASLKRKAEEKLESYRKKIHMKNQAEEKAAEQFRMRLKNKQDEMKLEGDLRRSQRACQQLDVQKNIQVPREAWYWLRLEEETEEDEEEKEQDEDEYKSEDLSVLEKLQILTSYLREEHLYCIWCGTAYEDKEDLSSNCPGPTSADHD
UniProt Q8TBA6: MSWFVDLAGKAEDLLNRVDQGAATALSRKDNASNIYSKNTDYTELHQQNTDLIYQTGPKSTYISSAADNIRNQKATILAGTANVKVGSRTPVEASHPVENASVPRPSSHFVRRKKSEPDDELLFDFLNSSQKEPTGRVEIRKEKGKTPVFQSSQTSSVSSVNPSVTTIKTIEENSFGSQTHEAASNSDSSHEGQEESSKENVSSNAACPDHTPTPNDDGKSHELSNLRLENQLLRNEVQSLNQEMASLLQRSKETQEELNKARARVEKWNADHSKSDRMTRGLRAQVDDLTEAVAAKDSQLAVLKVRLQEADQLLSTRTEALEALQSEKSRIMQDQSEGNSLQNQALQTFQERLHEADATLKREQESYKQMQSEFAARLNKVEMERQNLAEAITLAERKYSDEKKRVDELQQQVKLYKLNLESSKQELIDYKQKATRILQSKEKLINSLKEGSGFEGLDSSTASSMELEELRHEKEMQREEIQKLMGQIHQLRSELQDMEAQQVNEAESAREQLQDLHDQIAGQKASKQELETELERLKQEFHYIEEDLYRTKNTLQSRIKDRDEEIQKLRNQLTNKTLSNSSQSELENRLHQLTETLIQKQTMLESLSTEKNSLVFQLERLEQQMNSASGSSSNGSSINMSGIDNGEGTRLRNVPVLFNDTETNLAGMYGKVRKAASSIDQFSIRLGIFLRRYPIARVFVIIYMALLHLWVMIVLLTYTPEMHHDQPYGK
UniProt O75223: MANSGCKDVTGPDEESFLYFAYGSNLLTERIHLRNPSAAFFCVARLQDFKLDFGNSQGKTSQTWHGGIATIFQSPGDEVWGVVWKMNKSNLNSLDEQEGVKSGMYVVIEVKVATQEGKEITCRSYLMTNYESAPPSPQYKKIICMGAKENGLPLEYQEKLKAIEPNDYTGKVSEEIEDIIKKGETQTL
UniProt O14653: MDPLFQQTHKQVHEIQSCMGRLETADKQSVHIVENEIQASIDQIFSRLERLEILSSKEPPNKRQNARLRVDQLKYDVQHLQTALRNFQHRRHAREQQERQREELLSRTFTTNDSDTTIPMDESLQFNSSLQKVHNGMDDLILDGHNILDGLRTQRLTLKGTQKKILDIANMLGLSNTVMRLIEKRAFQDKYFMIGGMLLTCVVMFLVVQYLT
UniProt Q9H4A6: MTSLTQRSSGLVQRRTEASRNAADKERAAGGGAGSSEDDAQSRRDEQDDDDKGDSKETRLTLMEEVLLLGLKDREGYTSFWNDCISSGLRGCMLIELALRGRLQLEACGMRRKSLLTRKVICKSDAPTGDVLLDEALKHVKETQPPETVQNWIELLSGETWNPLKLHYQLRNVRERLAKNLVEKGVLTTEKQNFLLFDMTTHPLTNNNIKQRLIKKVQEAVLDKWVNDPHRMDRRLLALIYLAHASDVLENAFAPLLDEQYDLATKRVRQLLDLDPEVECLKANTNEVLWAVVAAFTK
UniProt Q9NS18: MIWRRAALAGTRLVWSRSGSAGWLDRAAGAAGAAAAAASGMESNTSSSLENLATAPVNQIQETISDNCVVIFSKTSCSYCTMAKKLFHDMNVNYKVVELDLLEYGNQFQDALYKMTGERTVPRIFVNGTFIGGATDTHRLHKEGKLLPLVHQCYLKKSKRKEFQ
UniProt Q9HCN4, whole entry, looked up: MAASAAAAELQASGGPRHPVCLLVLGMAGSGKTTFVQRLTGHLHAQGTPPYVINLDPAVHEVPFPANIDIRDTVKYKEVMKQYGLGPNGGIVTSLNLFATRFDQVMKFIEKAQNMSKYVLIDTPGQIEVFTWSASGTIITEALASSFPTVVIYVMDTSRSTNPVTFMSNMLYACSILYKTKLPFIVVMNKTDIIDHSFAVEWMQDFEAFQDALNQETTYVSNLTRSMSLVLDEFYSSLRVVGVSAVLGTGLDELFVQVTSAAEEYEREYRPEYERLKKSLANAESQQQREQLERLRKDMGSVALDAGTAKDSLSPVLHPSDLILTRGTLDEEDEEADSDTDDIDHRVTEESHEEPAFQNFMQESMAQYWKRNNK
UniProt P08754, whole entry, looked up: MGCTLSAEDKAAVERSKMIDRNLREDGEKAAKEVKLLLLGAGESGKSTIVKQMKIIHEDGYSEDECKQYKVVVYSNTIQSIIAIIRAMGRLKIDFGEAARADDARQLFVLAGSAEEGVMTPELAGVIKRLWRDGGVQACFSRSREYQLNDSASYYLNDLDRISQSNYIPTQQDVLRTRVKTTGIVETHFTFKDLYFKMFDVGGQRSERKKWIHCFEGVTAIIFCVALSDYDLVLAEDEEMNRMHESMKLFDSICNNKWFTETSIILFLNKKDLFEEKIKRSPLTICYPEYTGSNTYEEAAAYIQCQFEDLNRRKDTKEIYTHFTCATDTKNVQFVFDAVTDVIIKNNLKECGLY
UniProt P62873, whole entry, looked up: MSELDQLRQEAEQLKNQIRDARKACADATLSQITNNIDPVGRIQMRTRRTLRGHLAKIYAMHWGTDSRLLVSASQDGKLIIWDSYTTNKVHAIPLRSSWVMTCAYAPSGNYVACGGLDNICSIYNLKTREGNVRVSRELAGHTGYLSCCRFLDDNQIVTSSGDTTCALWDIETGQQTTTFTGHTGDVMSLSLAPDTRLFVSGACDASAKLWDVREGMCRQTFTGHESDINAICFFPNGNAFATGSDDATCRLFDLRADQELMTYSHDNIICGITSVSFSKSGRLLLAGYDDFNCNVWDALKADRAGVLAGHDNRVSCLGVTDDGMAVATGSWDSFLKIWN
UniProt B7ZAQ6: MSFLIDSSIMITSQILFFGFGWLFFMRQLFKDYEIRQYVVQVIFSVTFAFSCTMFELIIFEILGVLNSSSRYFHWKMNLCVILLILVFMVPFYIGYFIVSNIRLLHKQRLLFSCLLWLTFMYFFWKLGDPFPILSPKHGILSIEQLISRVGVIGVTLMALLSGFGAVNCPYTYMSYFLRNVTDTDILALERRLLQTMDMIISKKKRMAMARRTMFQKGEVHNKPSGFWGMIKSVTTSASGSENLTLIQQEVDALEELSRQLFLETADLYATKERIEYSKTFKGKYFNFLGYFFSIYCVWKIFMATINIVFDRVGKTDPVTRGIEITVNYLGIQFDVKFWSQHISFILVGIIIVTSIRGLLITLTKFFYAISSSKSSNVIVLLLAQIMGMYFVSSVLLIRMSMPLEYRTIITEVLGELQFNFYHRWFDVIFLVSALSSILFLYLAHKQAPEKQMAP
UniProt Q8N335: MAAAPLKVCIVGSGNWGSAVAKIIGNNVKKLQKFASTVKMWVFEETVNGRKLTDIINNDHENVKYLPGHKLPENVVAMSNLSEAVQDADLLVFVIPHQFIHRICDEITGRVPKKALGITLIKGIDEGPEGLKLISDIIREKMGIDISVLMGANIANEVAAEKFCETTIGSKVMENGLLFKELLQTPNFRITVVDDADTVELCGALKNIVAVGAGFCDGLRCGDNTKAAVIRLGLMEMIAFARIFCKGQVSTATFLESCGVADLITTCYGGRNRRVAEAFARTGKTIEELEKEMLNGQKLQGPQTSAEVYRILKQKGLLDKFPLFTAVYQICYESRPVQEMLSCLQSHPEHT

Assays:
Experiment in all cases: log2 fold change, soluble protein after heating vs DMSO (PISA); higher = thermal stabilisation; K562 lysate, 10 uM; active = over 0.2 and 3.5 SD of the protein, either way, in both replicates (recomputed)
[1] = compound: CCCS(=O)(=O)Nc1ccc(F)c(C(=O)c2c[nH]c3ncc(-c4ccc(Cl)cc4)cc23)c1F [vemurafenib]
Procedure, shortened: (§1)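 Log-two fold change in thermal stability relative to solvent controls is reported from duplicates. For each sample, crude K562 extract from dounce-homogenised pellets in PBS pH 7.4 with 1 mM MgCl2, at 1 mg/mL protein, was treated with 10 μM compound for 30 min. Aliquots heated for 3 min across 48°C-58°C were pooled, brought to 0.5% NP-40 at 4°C and cleared at 21,000xg for 90 min. The supernatant was quantified by TMTpro 16plex LC-MS/MS with channel sums equalised.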

[2] = compound: CCCS(=O)(=O)Nc1ccc(F)c(C(=O)c2c[nH]c3ncc(Cl)cc23)c1F
Procedure, shortened: as §1

[3] = compound: CCN(CCCOc1ccc2c(Nc3cc(CC(=O)Nc4cccc(F)c4)[nH]n3)ncnc2c1)CCOP(=O)(O)O [barasertib]
Procedure, shortened: as §1

[4] = compound: CC[C@@H]1C(=O)N(C)c2cnc(Nc3ccc(C(=O)NC4CCN(C)CC4)cc3OC)nc2N1C1CCCC1
Procedure, shortened: as §1

[5] = compound: CC[C@@H]1C(=O)N(C)c2cnc(Nc3ccc(C(=O)N[C@H]4CC[C@H](N5CCN(CC6CC6)CC5)CC4)cc3OC)nc2N1C(C)C [volasertib]
Procedure, shortened: as §1

[6] = compound: CCn1c(C(=O)N(C2CC2)C2CC2)cc2c3c(ncn3C)c(Nc3cc(C)n(C)n3)nc21
Procedure, shortened: as §1

[7] = compound: CCn1cc(-c2ccnc3[nH]c(-c4cccc(CN(C)C)c4)cc23)c(-c2ccc(NC(=O)N(C)C)cc2)n1
Procedure, shortened: as §1

[8] = compound: CN1CCC(CNc2ccc3ncc(-c4cccc(OC(F)(F)F)c4)n3n2)CC1
Procedure, shortened: as §1

[9] = compound: CN1CCN(CCOc2cc(OC3CCOCC3)c3c(Nc4c(Cl)ccc5c4OCO5)ncnc3c2)CC1 [saracatinib]
Procedure, shortened: as §1

[10] = compound: CN1CCN(c2nc(C3=C(c4c[nH]c5ccccc45)C(=O)NC3=O)c3ccccc3n2)CC1 [sotrastaurin]
Procedure, shortened: as §1

[11] = compound: CN1CC[C@H](c2c(O)cc(O)c3c(=O)cc(-c4ccccc4Cl)oc23)[C@H](O)C1 [alvocidib]
Procedure, shortened: as §1

[12] = compound: CN1CCc2c(c3ccccc3n2Cc2ccc(C(=O)NO)cc2)C1 [Tubastatin A]
Procedure, shortened: as §1

[13] = compound: CNC(=O)C1=CC=CC=C1NC2=NC(=NC=C2Cl)NC3=C(C=C(C=C3)N4CCOCC4)OC
Procedure, shortened: as §1

[14] = compound: CNC(=O)c1ccc(Nc2ncc(C(F)(F)F)c(NCc3nccnc3N(C)S(C)(=O)=O)n2)cc1 [defactinib]
Procedure, shortened: as §1

[15] = compound: CNc1nc(-c2ccc3c(N)n[nH]c3c2)cc(N2C[C@@H](C(=O)NC3CCCCC3)CC[C@H]2C)n1
Procedure, shortened: as §1

[16] = compound: COC(=O)N[C@@H](C)CNc1nccc(-c2cn(C(C)C)nc2-c2cc(Cl)cc(NS(C)(=O)=O)c2F)n1 [encorafenib]
Procedure, shortened: as §1

[17] = compound: COC(=O)[C@H](CCSC)NC(=O)C1=C(C=C(C=C1)NC[C@H](CS)N)C2=CC=CC=C2
Procedure, shortened: as §1

[18] = compound: COc1cc(Nc2ncc3c(n2)-c2ccc(Cl)cc2C(c2c(F)cccc2OC)=NC3)ccc1C(=O)O [alisertib]
Procedure, shortened: as §1

[19] = compound: COc1cc2nc(-c3cc(F)ccc3O)nc(N[C@@H]3CNC[C@H]3C(C)(C)O)c2cc1OC
Procedure, shortened: as §1

[20] = compound: COc1cc2ncnc(Nc3ccc(F)c(Cl)c3)c2cc1OCCCN1CCOCC1 [gefitinib]
Procedure, shortened: as §1

Measured: log2 fold change

GOLGA1 (UniProt Q92805)
inactive: [1] 0.081 | [2] 0.086 | [3] 0 | [4] 0.007 | [5] 0.121 | [6] -0.061 | [7] -0.019 | [8] -0.04 | [9] -0.031 | [10] 0.071 | [11] -0.027 | [12] 0.051 | [13] 0.035 | [14] -0.017 | [15] 0.011 | [16] 0.028 | [17] -0.093 | [18] -0.017 | [19] -0.18 | [20] -0.024

GM2A (UniProt P17900)
inactive: [1] 0.085 | [2] -0.035 | [3] 0.369 | [4] 0.023 | [5] 0.058 | [6] 0.057 | [7] -0.047 | [8] -0.024 | [9] -0.057 | [10] 0.042 | [11] 0.015 | [12] 0.092 | [13] -0.018 | [14] 0.033 | [15] -0.021 | [16] -0.007 | [17] 0.093 | [18] 0.009 | [19] -0.016 | [20] 0.096

GNB1L (UniProt Q9BYB4)
inactive: [1] -0.009 | [2] 0.047 | [3] 0 | [4] 0.015 | [5] -0.012 | [6] -0.007 | [7] -0.02 | [8] 0.047 | [9] -0.013 | [10] -0.003 | [11] -0.017 | [12] 0.026 | [13] -0.002 | [14] 0.001 | [15] -0.035 | [16] 0.002 | [17] -0.011 | [18] 0.004 | [19] -0.012 | [20] 0.01

GGA3 (UniProt Q9NZ52)
inactive: [1] -0.109 | [2] 0.022 | [3] -0.032 | [4] -0.063 | [5] -0.027 | [6] 0.068 | [7] -0.023 | [8] 0 | [9] 0.007 | [10] 0.005 | [11] 0.007 | [12] -0.027 | [13] 0.001 | [14] 0.019 | [15] -0.143 | [16] 0.083 | [17] -0.01 | [18] 0.023 | [19] 0 | [20] 0.038

GOLIM4 (UniProt O00461)
inactive: [1] 0.026 | [2] 0.013 | [3] 0.012 | [4] 0.026 | [5] 0.004 | [6] -0.051 | [7] 0.116 | [8] -0.155 | [9] 0.018 | [10] 0.01 | [11] 0.063 | [12] 0.048 | [13] -0.03 | [14] -0.037 | [15] 0.022 | [16] 0.061 | [17] -0.018 | [18] -0.009 | [19] -0.042 | [20] 0.062

GPATCH11 (UniProt Q8N954)
inactive: [1] -0.005 | [2] 0.001 | [3] 0.018 | [4] 0.094 | [5] 0.023 | [6] -0.036 | [7] -0.016 | [8] 0.03 | [9] 0.028 | [10] 0.015 | [11] -0.048 | [12] 0.074 | [13] -0.015 | [14] 0.008 | [15] 0.07 | [16] 0.018 | [17] -0.046 | [18] -0.025 | [19] 0.007 | [20] 0

GOLGA5 (UniProt Q8TBA6)
inactive: [1] 0.028 | [2] -0.035 | [3] 0.079 | [4] -0.012 | [5] 0.003 | [6] 0.031 | [7] 0.021 | [8] 0.008 | [9] 0.039 | [10] 0.005 | [11] 0.004 | [12] -0.016 | [13] -0.02 | [14] 0.028 | [15] -0.031 | [16] 0.044 | [17] 0.002 | [18] 0.032 | [19] -0.002 | [20] 0.079

GGCT (UniProt O75223)
inactive: [1] -0.05 | [2] -0.004 | [3] -0.04 | [4] 0.016 | [5] 0.051 | [6] -0.026 | [7] 0.026 | [8] 0.018 | [9] 0.004 | [10] -0.027 | [11] -0.019 | [12] 0.033 | [13] 0.014 | [14] -0.039 | [15] 0.002 | [16] -0.021 | [17] -0.059 | [18] -0.013 | [19] 0.009 | [20] -0.053

GOSR2 isoform 2 (UniProt O14653)
inactive: [1] 0.014 | [2] 0.055 | [3] -0.028 | [4] 0.021 | [5] 0 | [6] 0.047 | [7] 0.132 | [8] -0.123 | [9] 0.008 | [10] -0.018 | [11] -0.034 | [12] -0.17 | [13] 0.015 | [14] -0.024 | [15] 0 | [16] 0.017 | [17] -0.127 | [18] 0.007 | [19] -0.039 | [20] 0.029

GOLPH3 (UniProt Q9H4A6)
active: [17] -0.6
inactive: [1] -0.007 | [2] 0.015 | [3] 0.036 | [4] -0.016 | [5] -0.041 | [6] 0.018 | [7] -0.029 | [8] -0.103 | [9] 0.021 | [10] -0.053 | [11] 0.001 | [12] -0.123 | [13] 0.075 | [14] 0.015 | [15] -0.1 | [16] 0.051 | [18] -0.018 | [19] -0.024 | [20] -0.011

GLRX2 (UniProt Q9NS18)
inactive: [1] -0.099 | [2] 0.017 | [3] 0.004 | [4] 0.097 | [5] -0.025 | [6] 0.026 | [7] 0.132 | [8] -0.045 | [9] -0.03 | [10] 0.004 | [11] 0.028 | [12] -0.006 | [13] 0.02 | [14] 0.04 | [15] 0.021 | [16] 0.015 | [17] -0.02 | [18] -0.058 | [19] -0.03 | [20] 0.031

GPN1 isoform 5 (UniProt Q9HCN4)
inactive: [1] -0.023 | [2] 0.03 | [3] -0.024 | [4] 0.035 | [5] -0.024 | [6] -0.023 | [7] -0.028 | [8] 0.05 | [9] -0.035 | [10] -0.04 | [11] -0.001 | [12] 0.052 | [13] 0.094 | [14] 0.047 | [15] 0.064 | [16] -0.023 | [17] -0.057 | [18] 0.013 | [19] 0.034 | [20] -0.012

GNAI3 (UniProt P08754)
inactive: [1] 0.108 | [2] -0.003 | [3] 0.083 | [4] -0.044 | [5] -0.035 | [6] -0.015 | [7] 0.016 | [8] 0.008 | [9] 0.098 | [10] 0.021 | [11] -0.033 | [12] -0.013 | [13] 0.03 | [14] -0.059 | [15] -0.025 | [16] 0.008 | [17] -0.034 | [18] -0.022 | [19] 0.098 | [20] -0.009

GNB1 (UniProt P62873)
inactive: [1] -0.048 | [2] 0.124 | [3] -0.016 | [4] -0.081 | [5] 0.008 | [6] -0.037 | [7] -0.072 | [8] 0.05 | [9] -0.038 | [11] -0.095 | [12] 0.029 | [13] -0.023 | [14] -0.028 | [15] -0.011 | [16] 0.007 | [17] 0.003 | [18] -0.023 | [19] -0.011 | [20] -0.128
active: [10] -0.287

GPR89A (UniProt B7ZAQ6)
inactive: [1] -0.257 | [2] 0.011 | [3] 0.018 | [4] -0.107 | [5] 0.004 | [6] 0.017 | [7] -0.09 | [8] -0.096 | [9] 0.019 | [10] -0.037 | [11] 0.02 | [12] -0.01 | [13] -0.202 | [14] -0.023 | [15] -0.092 | [16] 0.016 | [17] -0.09 | [18] 0.04 | [19] -0.151 | [20] 0

2 successive entries out of the list so far, for reference:
GPN1 isoform 5 (UniProt Q9HCN4)
inactive: [1] -0.023 | [2] 0.03 | [3] -0.024 | [4] 0.035 | [5] -0.024 | [6] -0.023 | [7] -0.028 | [8] 0.05 | [9] -0.035 | [10] -0.04 | [11] -0.001 | [12] 0.052 | [13] 0.094 | [14] 0.047 | [15] 0.064 | [16] -0.023 | [17] -0.057 | [18] 0.013 | [19] 0.034 | [20] -0.012

GNAI3 (UniProt P08754)
inactive: [1] 0.108 | [2] -0.003 | [3] 0.083 | [4] -0.044 | [5] -0.035 | [6] -0.015 | [7] 0.016 | [8] 0.008 | [9] 0.098 | [10] 0.021 | [11] -0.033 | [12] -0.013 | [13] 0.03 | [14] -0.059 | [15] -0.025 | [16] 0.008 | [17] -0.034 | [18] -0.022 | [19] 0.098 | [20] -0.009

The list continues.

GPD1L (UniProt Q8N335)
inactive: [1] -0.036 | [2] 0.027 | [3] 0.034 | [4] -0.097 | [5] -0.022 | [6] 0.025 | [7] -0.009 | [8] -0.051 | [9] 0.017 | [10] -0.01 | [11] 0.004 | [12] -0.062 | [13] 0.031 | [14] 0.048 | [15] -0.055 | [16] -0.033 | [17] 0.151 | [18] -0.036 | [19] 0.002 | [20] 0.016
